Some results were stated once for a whole list of compounds, not compound by compound.
What follows are compounds tested against JAK2 (Homo sapiens, UniProt O60674) (assay: JAK2 Tyrosine Kinase Assay). Conditions: list of named compounds.
Type: biochemical
Method: JAK2 Tyrosine Kinase Assay
The assays were performed in V-bottom 384-well plates. […] The reaction was initiated by the combination of JAK2 with substrates and test compounds. The reaction was incubated at room temperature for 60 min. and terminated by adding 45 μl of 35 mM EDTA to each sample. The reaction mixture was analyzed on the Caliper LabChip 3000 by electrophoretic separation of the fluorescent substrate and phosphorylated product. […] Compounds were dissolved at 10 mM in dimethylsulfoxide (DMSO) and evaluated at eleven concentrations, each in duplicate. IC50 values were derived by non-linear regression analysis

Sequences of proteins named here, by UniProt entry; tags and fusion partners are left off. A change or cut given only in a name is not applied to a line headed by its entry.
UniProt O60674: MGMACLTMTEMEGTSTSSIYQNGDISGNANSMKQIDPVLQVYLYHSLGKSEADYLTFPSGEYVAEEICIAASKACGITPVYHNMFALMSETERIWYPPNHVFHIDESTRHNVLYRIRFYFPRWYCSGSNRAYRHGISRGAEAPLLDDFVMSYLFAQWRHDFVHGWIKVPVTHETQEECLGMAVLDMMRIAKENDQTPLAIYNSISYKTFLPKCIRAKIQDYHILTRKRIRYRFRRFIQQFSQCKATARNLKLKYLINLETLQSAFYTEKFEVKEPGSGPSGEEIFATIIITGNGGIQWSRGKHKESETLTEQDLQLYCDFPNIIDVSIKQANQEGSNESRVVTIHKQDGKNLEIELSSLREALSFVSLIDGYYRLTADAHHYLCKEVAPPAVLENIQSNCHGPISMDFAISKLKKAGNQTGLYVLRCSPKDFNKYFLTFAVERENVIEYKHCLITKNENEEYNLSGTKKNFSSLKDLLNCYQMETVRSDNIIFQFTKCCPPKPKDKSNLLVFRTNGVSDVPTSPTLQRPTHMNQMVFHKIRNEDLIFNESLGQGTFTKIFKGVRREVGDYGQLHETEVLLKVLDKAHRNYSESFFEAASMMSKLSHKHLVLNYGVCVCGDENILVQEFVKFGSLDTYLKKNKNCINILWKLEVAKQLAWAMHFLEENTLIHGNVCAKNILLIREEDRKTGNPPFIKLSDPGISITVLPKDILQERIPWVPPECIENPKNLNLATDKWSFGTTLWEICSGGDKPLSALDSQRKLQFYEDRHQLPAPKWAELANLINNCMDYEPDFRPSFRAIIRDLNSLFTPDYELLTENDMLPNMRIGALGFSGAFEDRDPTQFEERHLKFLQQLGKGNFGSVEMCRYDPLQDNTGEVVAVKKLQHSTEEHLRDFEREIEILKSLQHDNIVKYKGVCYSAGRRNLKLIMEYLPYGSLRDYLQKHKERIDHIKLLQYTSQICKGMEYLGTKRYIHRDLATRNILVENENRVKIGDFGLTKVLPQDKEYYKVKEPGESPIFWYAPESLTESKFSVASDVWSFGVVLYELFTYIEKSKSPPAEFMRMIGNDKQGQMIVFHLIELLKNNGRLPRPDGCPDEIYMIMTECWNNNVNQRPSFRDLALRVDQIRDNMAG

Structure (SMILES)	selectivity for JAK2 activity versus JAK3 activity
CC(=O)O[C@H](C(=O)N1CCN(c2nc(Nc3cc(C)[nH]n3)c3cccn3n2)CC1)c1ccccc1 [(1S)-2-(4-(4-((5-methyl-1H-pyrazol-3-yl)amino)pyrrolo[2,1-f][1,2,4]triazin-2-yl)-1-piperazinyl)-2-oxo-1-phenylethyl acetate]	≥ 15
Cc1cc(Nc2nc(N3CCN(C(=O)[C@@](C)(O)C(F)(F)F)CC3)nn3cccc23)n[nH]1 [(2R)-1,1,1-trifluoro-2-methyl-3-(4-(4-((5-methyl-1H-pyrazol-3-yl)amino)pyrrolo[2,1-f][1,2,4]triazin-2-yl)-1-piperazinyl)-3-oxo-2-propanol]	≥ 15
Cc1cc(Nc2nc(N3CCN(C(=O)[C@](C)(O)c4ccccc4)CC3)nn3cccc23)n[nH]1 [(2R)-1-(4-(4-((5-methyl-1H-pyrazol-3-yl)amino)pyrrolo[2,1-f][1,2,4]triazin-2-yl)-1-piperazinyl)-1-oxo-2-phenyl-2-propanol]	≥ 15
Cc1cc(Nc2nc(N3CCN(C(=O)[C@H](O)CCc4ccccc4)CC3)nn3cccc23)n[nH]1 [(2R)-1-(4-(4-((5-methyl-1H-pyrazol-3-yl)amino)pyrrolo[2,1-f][1,2,4]triazin-2-yl)-1-piperazinyl)-1-oxo-4-phenyl-2-butanol]	≥ 15
Cc1cc(Nc2nc(N3CCN(C(=O)[C@@](C)(O)c4ccccc4)CC3)nn3cccc23)n[nH]1 [(2S)-1-(4-(4-((5-methyl-1H-pyrazol-3-yl)amino)pyrrolo[2,1-f][1,2,4]triazin-2-yl)-1-piperazinyl)-1-oxo-2-phenyl-2-propanol]	≥ 15
Cc1cc(Nc2nc(N3CCN(C(=O)[C@@H](O)Cc4ccccc4)CC3)nn3cccc23)n[nH]1 [(2S)-1-(4-(4-((5-methyl-1H-pyrazol-3-yl)amino)pyrrolo[2,1-f][1,2,4]triazin-2-yl)-1-piperazinyl)-1-oxo-3-phenyl-2-propanol]	≥ 15
Cc1cnc(C(=O)N2CCN(c3nc(Nc4cc(C)[nH]n4)c4cccn4n3)CC2)cn1 [Example 32, 2-(4-((5-methyl-2-pyrazinyl)carbonyl)-1-piperazinyl)-N-(5-methyl-1H-pyrazol-3-yl)pyrrolo[2,1-f] [1,2,4]triazin-4-amine]	≥ 15
Cc1cc(Nc2nc(N3CCN(C(=O)C(O)c4ccccc4F)CC3)nn3cccc23)n[nH]1 (stereo not shown) [Example 219, 1-(2-fluorophenyl)-2-(4-(4-((5-methyl-1H-pyrazol-3-yl)amino)pyrrolo[2,1-f][1,2,4]triazin-2-yl)-1-piperazinyl)-2-oxoethanol]	≥ 15
CC(=O)NC(C(=O)N1CCN(c2nc(Nc3cc(C)[nH]n3)c3cccn3n2)CC1)c1ccccc1 (stereo not shown) [N-(2-(4-(4-((5-methyl-1H-pyrazol-3-yl)amino)pyrrolo[2,1-f][1,2,4]triazin-2-yl)-1-piperazinyl)-2-oxo-1-phenylethyl)acetamide]	≥ 15
CC(=O)Nc1ccccc1C(=O)N1CCN(c2nc(Nc3cc(C)[nH]n3)c3cccn3n2)CC1 [N-(2-((4-(4-((5-methyl-1H-pyrazol-3-yl)amino)pyrrolo[2,1-f][1,2,4]triazin-2-yl)-1-piperazinyl)carbonyl)phenyl)acetamide]	≥ 15
CC(=O)Nc1cccc(C(=O)N2CCN(c3nc(Nc4cc(C)[nH]n4)c4cccn4n3)CC2)c1 [N-(3-((4-(4-((5-methyl-1H-pyrazol-3-yl)amino)pyrrolo[2,1-f][1,2,4]triazin-2-yl)-1-piperazinyl)carbonyl)phenyl)acetamide]	≥ 15
CC(=O)Nc1ccc(C(=O)N2CCN(c3nc(Nc4cc(C)[nH]n4)c4cccn4n3)CC2)cc1 [N-(4-((4-(4-((5-methyl-1H-pyrazol-3-yl)amino)pyrrolo[2,1-f][1,2,4]triazin-2-yl)-1-piperazinyl)carbonyl)phenyl)acetamide]	≥ 15
Cc1cc(Nc2nc(N3CCN(C(=O)c4ncco4)CC3)nn3cccc23)n[nH]1 [N-(5-methyl-1H-pyrazol-3-yl)-2-(4-(1,3-oxazol-2-ylcarbonyl)-1-piperazinyl)pyrrolo[2,1-f][1,2,4]triazin-4-amine]	≥ 15
Cc1cc(Nc2nc(N3CCN(C(=O)c4cnco4)CC3)nn3cccc23)n[nH]1 [N-(5-methyl-1H-pyrazol-3-yl)-2-(4-(1,3-oxazol-5-ylcarbonyl)-1-piperazinyl)pyrrolo[2,1-f][1,2,4]triazin-4-amine]	≥ 15
Cc1cc(Nc2nc(N3CCN(C(=O)c4cn[nH]c4)CC3)nn3cccc23)n[nH]1 [N-(5-methyl-1H-pyrazol-3-yl)-2-(4-(1H-pyrazol-4-ylcarbonyl)-1-piperazinyl)pyrrolo[2,1-f][1,2,4]triazin-4-amine]	≥ 15
Cc1cc(Nc2nc(N3CCN(C(=O)c4ccccc4S(C)(=O)=O)CC3)nn3cccc23)n[nH]1 [N-(5-methyl-1H-pyrazol-3-yl)-2-(4-(2-(methylsulfonyl)benzoyl)-1-piperazinyl)pyrrolo[2,1-f][1,2,4]triazin-4-amine]	≥ 15

Structure (SMILES)	selectivity for JAK2 activity versus JAK3 activity
Cc1cc(Nc2nc(N3CCN(C(=O)c4ccccc4COc4ccccc4)CC3)nn3cccc23)n[nH]1 [N-(5-methyl-1H-pyrazol-3-yl)-2-(4-(2-(phenoxymethyl)benzoyl)-1-piperazinyl)pyrrolo[2,1-f][1,2,4]triazin-4-amine]	≥ 15
Cc1cc(Nc2nc(N3CCN(C(=O)c4ccccc4OC(F)(F)F)CC3)nn3cccc23)n[nH]1 [N-(5-methyl-1H-pyrazol-3-yl)-2-(4-(2-(trifluoromethoxy)benzoyl)-1-piperazinyl)pyrrolo[2,1-f][1,2,4]triazin-4-amine]	≥ 15
Cc1cc(Nc2nc(N3CCN(C(=O)c4ccccc4C(F)(F)F)CC3)nn3cccc23)n[nH]1 [N-(5-methyl-1H-pyrazol-3-yl)-2-(4-(2-(trifluoromethyl)benzoyl)-1-piperazinyl)pyrrolo[2,1-f][1,2,4]triazin-4-amine]	≥ 15
Cc1cc(Nc2nc(N3CCN(C(=O)c4ccccc4Oc4ccccc4)CC3)nn3cccc23)n[nH]1 [N-(5-methyl-1H-pyrazol-3-yl)-2-(4-(2-phenoxybenzoyl)-1-piperazinyl)pyrrolo[2,1-f][1,2,4]triazin-4-amine]	≥ 15
CCC(C(=O)N1CCN(c2nc(Nc3cc(C)[nH]n3)c3cccn3n2)CC1)c1ccccc1 (stereo not shown) [N-(5-methyl-1H-pyrazol-3-yl)-2-(4-(2-phenylbutanoyl)-1-piperazinyl)pyrrolo[2,1-f][1,2,4]triazin-4-amine]	≥ 15
Cc1cc(Nc2nc(N3CCN(C(=O)CCc4ccccc4)CC3)nn3cccc23)n[nH]1 [N-(5-methyl-1H-pyrazol-3-yl)-2-(4-(3-phenylpropanoyl)-1-piperazinyl)pyrrolo[2,1-f][1,2,4]triazin-4-amine]	≥ 15
Cc1cc(Nc2nc(N3CCN(C(=O)c4cccnc4)CC3)nn3cccc23)n[nH]1 [N-(5-methyl-1H-pyrazol-3-yl)-2-(4-(3-pyridinylcarbonyl)-1-piperazinyl)pyrrolo[2,1-f][1,2,4]triazin-4-amine]	≥ 15
Cc1cc(Nc2nc(N3CCN(C(=O)c4ccc(OC(F)(F)F)cc4)CC3)nn3cccc23)n[nH]1 [N-(5-methyl-1H-pyrazol-3-yl)-2-(4-(4-(trifluoromethoxy)benzoyl)-1-piperazinyl)pyrrolo[2,1-f][1,2,4]triazin-4-amine]	≥ 15
Cc1cc(Nc2nc(N3CCN(C(=O)c4ccc(C(F)(F)F)cc4)CC3)nn3cccc23)n[nH]1 [N-(5-methyl-1H-pyrazol-3-yl)-2-(4-(4-(trifluoromethyl)benzoyl)-1-piperazinyl)pyrrolo[2,1-f][1,2,4]triazin-4-amine]	≥ 15
Cc1cc(Nc2nc(N3CCN(C(=O)C4(C(F)(F)F)CCC4)CC3)nn3cccc23)n[nH]1 [N-(5-methyl-1H-pyrazol-3-yl)-2-(4-((1-(trifluoromethyl)cyclobutyl)carbonyl)-1-piperazinyl)pyrrolo[2,1-f][1,2,4]triazin-4-amine]	≥ 15
Cc1cc(Nc2nc(N3CCN(C(=O)C4(C(F)(F)F)CC4)CC3)nn3cccc23)n[nH]1 [N-(5-methyl-1H-pyrazol-3-yl)-2-(4-((1-(trifluoromethyl)cyclopropyl)carbonyl)-1-piperazinyl)pyrrolo[2,1-f][1,2,4]triazin-4-amine]	≥ 15
Cc1cc(Nc2nc(N3CCN(C(=O)c4cccn4C)CC3)nn3cccc23)n[nH]1 [N-(5-methyl-1H-pyrazol-3-yl)-2-(4-((1-methyl-1H-pyrrol-2-yl)carbonyl)-1-piperazinyl)pyrrolo[2,1-f][1,2,4]triazin-4-amine]	≥ 15
Cc1cc(Nc2nc(N3CCN(C(=O)C4(c5ccccc5)CCC4)CC3)nn3cccc23)n[nH]1 [N-(5-methyl-1H-pyrazol-3-yl)-2-(4-((1-phenylcyclobutyl)carbonyl)-1-piperazinyl)pyrrolo[2,1-f][1,2,4]triazin-4-amine]	≥ 15
Cc1cc(Nc2nc(N3CCN(C(=O)C4(c5ccccc5)CCCC4)CC3)nn3cccc23)n[nH]1 [N-(5-methyl-1H-pyrazol-3-yl)-2-(4-((1-phenylcyclopentyl)carbonyl)-1-piperazinyl)pyrrolo[2,1-f][1,2,4]triazin-4-amine]	≥ 15
Cc1cc(Nc2nc(N3CCN(C(=O)C4(c5ccccc5)CC4)CC3)nn3cccc23)n[nH]1 [N-(5-methyl-1H-pyrazol-3-yl)-2-(4-((1-phenylcyclopropyl)carbonyl)-1-piperazinyl)pyrrolo[2,1-f][1,2,4]triazin-4-amine]	≥ 15
